The test concerns the target Flag-ACRP-mAPRIL A88 (mouse). Put plainly: Flag-ACRP-mAPRIL A88 preincubated with antibody, flow cytometry on HEK 293 wild-type cells.

These are yes or no findings as the source states them, for the method shown. A result given as binding can be weak or reduced; the word gives no strength.

B1: 104 (antibody, V domains shown)
VH: EFQLQQSGPELVKPGASVKISCKASGYSFTDYNMSWVKQSNGKSLEWIGIISPYYGTTTYNQNFKGKATLTVDQSSSTAYMHLNSLTSEDSAVYYCARNYGGNLDYYSMDYWGQGTSVTVSS
VL: SIVMTQTPNFLLVSAGDRVTMTCKASQTVSNDVGWYQQKPGQSPKLLIYYASNRYTGVPDRFTGSGYGTDFTFTITTVQAEDLAVYFCQQDSSFPLTFGAGTKLELK
Consider B1, for which the binding result was “binds”.

The values above are taken from patent publication US20240101692A1.
